Results reported in patent US20170281792A1 (Genentech, published 2017).
These are yes or no findings as the source states them, for the method shown. Some results given as binding are weak or reduced against the parent protein; the word gives no strength.

By UniProt entry, the sequences of proteins in these tests, tags left out. Where a name states a change or a piece, a line headed by the entry shows the natural chain unless it says otherwise.
UniProt Q13421: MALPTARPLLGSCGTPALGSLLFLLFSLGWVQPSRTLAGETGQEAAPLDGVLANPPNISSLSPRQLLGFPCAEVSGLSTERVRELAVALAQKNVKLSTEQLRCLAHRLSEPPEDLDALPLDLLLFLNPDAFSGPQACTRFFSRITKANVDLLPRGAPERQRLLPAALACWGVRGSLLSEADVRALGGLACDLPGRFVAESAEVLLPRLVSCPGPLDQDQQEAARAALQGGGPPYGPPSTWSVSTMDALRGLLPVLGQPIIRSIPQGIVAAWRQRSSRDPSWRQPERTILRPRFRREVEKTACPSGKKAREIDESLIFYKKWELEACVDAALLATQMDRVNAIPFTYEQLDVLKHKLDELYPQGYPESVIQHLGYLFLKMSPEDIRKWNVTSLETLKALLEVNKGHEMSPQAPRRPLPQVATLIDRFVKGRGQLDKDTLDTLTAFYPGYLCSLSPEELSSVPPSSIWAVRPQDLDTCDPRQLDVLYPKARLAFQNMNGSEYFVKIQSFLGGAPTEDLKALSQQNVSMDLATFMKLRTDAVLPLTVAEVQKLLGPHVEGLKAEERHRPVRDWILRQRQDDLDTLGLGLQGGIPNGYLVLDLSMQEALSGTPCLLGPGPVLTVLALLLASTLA

Experiments:
[1] = molecular target: E. coli derived recombinant human mesothelin (human) (UniProt Q13421); experiment: SPR (Biacore), IgG over immobilized E. coli derived human mesothelin
[2] = molecular target: C-terminally his-tagged human mesothelin expressed in CHO cells (Mono S fractions A11, A12, B1, B5) (human) (UniProt Q13421); experiment: figure legend (SPR and immunoprecipitation)
[3] = molecular target: gD epitope-tagged human mesothelin expressed on cells (construct #387) (human) (UniProt Q13421); experiment: immunoprecipitation from BJAB cells stably expressing gD-tagged human mesothelin, Western blot with murine anti-gD
[4] = molecular target: cyno mesothelin mutants (R153 to E and G174 to D) (cynomolgus monkey); experiment: FACS on cells expressing cyno mesothelin mutants (FIG. 18B)
[5] = molecular target: human mesothelin on cells (endogenous on tumour cell lines and tissue, or stably expressed on A431 or HT1080 cells; no tag stated) (human) (UniProt Q13421); experiment: FACS on H226x2 and OvCar3x2.1 cells
[6] = molecular target: gD epitope-tagged human mesothelin expressed on cells (construct #387) (human) (UniProt Q13421); experiment: immunoprecipitation from HT1080 cells
G174D = experiment: FACS on cells expressing the cyno mesothelin mutant, signal as % of the anti-gD signal (Example G)
R153E = experiment: as above
[7] = molecular target: gD epitope-tagged human mesothelin expressed on cells (construct #387) (human) (UniProt Q13421); experiment: FACS on stably transfected 293 cells, 10 µg/ml
[8] = molecular target: E. coli derived recombinant human mesothelin (human) (UniProt Q13421); experiment: SPR (Biacore), summary of the humanization
[9] = molecular target: human mesothelin on cells (endogenous on tumour cell lines and tissue, or stably expressed on A431 or HT1080 cells; no tag stated) (human) (UniProt Q13421); experiment: FACS on H226x2 cells, endogenous mesothelin
[10] = molecular target: human mesothelin on cells (endogenous on tumour cell lines and tissue, or stably expressed on A431 or HT1080 cells; no tag stated) (human) (UniProt Q13421); experiment: FACS on OvCar3x2.1 cells, endogenous mesothelin
[11] = molecular target: human mesothelin on cells (endogenous on tumour cell lines and tissue, or stably expressed on A431 or HT1080 cells; no tag stated) (human) (UniProt Q13421); experiment: FACS on HPAC cells, endogenous mesothelin
[12] = molecular target: immobilized human mesothelin (tryptic peptide mapping) (human) (UniProt Q13421); experiment: tryptic peptide mapping

Measured: binding

B1: humanized monoclonal antibody 7D9.v3 (antibody, V domains shown)
VH: EVQLVESGGGLVQPGGSLRLSCAASGYTFTTYWMHWVRQAPGKGLEWVGYIRPSTGYTEYNQKFKDRFTISADTSKNTAYLQMNSLRAEDTAVYYCARSRWLLDYWGQGTLVTVS
VL: DIQMTQSPSSLSASVGDRVTITCKSSQSVLYSSNQKNYLAWFQQKPGKAPKLLIYWASTRESGVPSRFSGSGSGTDFTLTISSLQPEDFATYFCHQYLSSYTFGQGTKVEIKR
notes: also called h7D9.v3; hu7D9.v3
binds: all assays above
